# Results taken from PMC7819943, “Rice protein-binding microarrays: a tool to detect cis-acting elements near promoter regions in rice”.
# Some of the results follow.
# Target: T1, OsSMF1 (Oryza sativa, UniProt Q6ZLB0 1-436)
# T1 sequence: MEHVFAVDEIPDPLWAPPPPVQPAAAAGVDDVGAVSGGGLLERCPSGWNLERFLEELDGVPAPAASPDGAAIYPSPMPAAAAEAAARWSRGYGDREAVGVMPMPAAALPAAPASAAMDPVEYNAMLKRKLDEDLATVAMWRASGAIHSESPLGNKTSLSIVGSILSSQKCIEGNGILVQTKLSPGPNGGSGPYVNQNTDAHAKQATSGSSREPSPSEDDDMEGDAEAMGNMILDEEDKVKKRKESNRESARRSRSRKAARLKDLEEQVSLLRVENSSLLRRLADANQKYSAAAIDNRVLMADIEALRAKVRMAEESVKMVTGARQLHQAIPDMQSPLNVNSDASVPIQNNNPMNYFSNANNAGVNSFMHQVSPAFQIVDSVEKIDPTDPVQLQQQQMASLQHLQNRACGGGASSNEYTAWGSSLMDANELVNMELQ
# Assay: protein-binding microarray (RPBM); PBS, 2% BSA, 51.3 ng/ul salmon testes DNA, 50 uM zinc acetate, 200 nM TF, 25 C, 1 h; high values mean tight binding
# Details: protein: recombinant; tags: N-terminal polyhistidine and DsRed monomer fusion (pET32a); chain copies: 2; label: CyDye5-dUTP incorporated in the synthesized complementary strand; 3' TTTTT single-stranded linker to array surface; dsDNA, one strand shown
# In short: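 Transcription factors were made in E. coli BL21-CodonPlus as N-terminal fusions to a polyhistidine tag and DsRed, then purified on Ni–NTA. After primer extension with Cy5-dUTP and blocking with 2% BSA, a custom Agilent array was exposed for 1 h at 25 °C to 200 nM protein in PBS, 2% BSA, salmon testes DNA and 50 µM zinc acetate. Washed arrays were scanned on an Axon 4000B, and the binding signal is per-feature fluorescence intensity in arbitrary units.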
row,Sequence,binding signal
1,CGTCAACTCCGTGCCGGAGAACAACACCGTGCGCGTCATCCGGAGTCACCTAGTGCAG,5170 fluorescence intensity (a.u.)
2,TGCGAATTAAGCCGCACTTGACCACGACGCCACGACCACTCGGAGTCACCTAGTGCAG,3560 fluorescence intensity (a.u.)
3,AAGCCGCCTCCGCTCCTCCGCGTGCGCCGCCGCCGACTCGCGGAGTCACCTAGTGCAG,3190 fluorescence intensity (a.u.)
4,GATCTAATCCATGGCCAGATAACCGATGTCATCACCAAATCGGAGTCACCTAGTGCAG,3920 fluorescence intensity (a.u.)
5,TCTCACCGCCCGGCAAGCACGAACACGATGACATCGGATCCGGAGTCACCTAGTGCAG,4590 fluorescence intensity (a.u.)
6,ACCTAAACGAGCCAACACGCACGCTCATCGCATCTTTGCGCGGAGTCACCTAGTGCAG,3810 fluorescence intensity (a.u.)
7,CGTCATACTGCTCGATCAGGTGGCCGGCTTACGTCATCGTCGGAGTCACCTAGTGCAG,6110 fluorescence intensity (a.u.)
8,GACGGACGCGTCGATGCGCGTGGCAGTAGCTGCGTGCGGGCGGAGTCACCTAGTGCAG,6090 fluorescence intensity (a.u.)
9,GACATGACGAAACAACATTGTCACGTCACTTGTGTTTGGTCGGAGTCACCTAGTGCAG,8040 fluorescence intensity (a.u.)
10,CCTCTGATGCACATGCTGACATCTGTTGCTTCTAGACATGCGGAGTCACCTAGTGCAG,4530 fluorescence intensity (a.u.)
11,TTGGTGTTAAATTTATAGTTATGTTATACACTGTCTTGAACGGAGTCACCTAGTGCAG,23800 fluorescence intensity (a.u.)
12,CTCATGATCTCCACCACCCGCGCCACGCCGCCCGCCTCCTCGGAGTCACCTAGTGCAG,3290 fluorescence intensity (a.u.)
13,CGGGACACACGTCTTACACATCAGCATTTGCTAAGCATACCGGAGTCACCTAGTGCAG,5180 fluorescence intensity (a.u.)
14,TTGTGATGTCCATGTCACATGCAGTCCATTAAGGCCCTTGCGGAGTCACCTAGTGCAG,5190 fluorescence intensity (a.u.)
15,GAAGGCGACCCGTGCGCACGACGCTCGCCGCCGCTTCCTGCGGAGTCACCTAGTGCAG,3960 fluorescence intensity (a.u.)
16,TGATGGTGGTGGTGGTGGTCGTCGTCGTCGGCTGTTTTGCCGGAGTCACCTAGTGCAG,4070 fluorescence intensity (a.u.)
17,TTACATGAAATTTACATACAAGTTACACTATTGTTACATGCGGAGTCACCTAGTGCAG,22600 fluorescence intensity (a.u.)
18,GTCGTCCGTCAGCACTGCATCCTCCCTCTCTTTCGCTAGCCGGAGTCACCTAGTGCAG,3960 fluorescence intensity (a.u.)
19,GTTGGCTCCCTCCACTACACTGTACTGACTTCGCCCATAGCGGAGTCACCTAGTGCAG,4000 fluorescence intensity (a.u.)
20,ATAAACCGCGCGCCTCTCGAATCCGCACCTCGTCACGCACCGGAGTCACCTAGTGCAG,3490 fluorescence intensity (a.u.)
21,CCACCTATCCACGTCAACTCCCTCCGTCCCTCGCCCGCGCCGGAGTCACCTAGTGCAG,8900 fluorescence intensity (a.u.)

row,Sequence,binding signal
1,CACTCCAAGAAGGAGATAGAGTAGTCCACCTCACCAGTTGCGGAGTCACCTAGTGCAG,5810 fluorescence intensity (a.u.)
2,CATAAACTCGGTGTTGCATATTCTTAGGCCCGGTCTTGTGCGGAGTCACCTAGTGCAG,3310 fluorescence intensity (a.u.)
3,AGCACCGCATTGGTGATGACCTTAGCCTTGTACACTCCACCGGAGTCACCTAGTGCAG,3800 fluorescence intensity (a.u.)
4,TTGGACGAGCTAGTAGTATTTATGAGAGCGCGTCAGCTGTCGGAGTCACCTAGTGCAG,3160 fluorescence intensity (a.u.)
5,TGGCTGTAGATCGGACCTGACTCAGCATGGCATGGCTGTACGGAGTCACCTAGTGCAG,14000 fluorescence intensity (a.u.)
6,CTTGAAAACAGACATTCTACACCCCGAACTATTGAAACCGCGGAGTCACCTAGTGCAG,20300 fluorescence intensity (a.u.)
7,ATATGAGGAAAGGAGATCGGAAGAATCGAGAAAGCCAGGGCGGAGTCACCTAGTGCAG,27100 fluorescence intensity (a.u.)
8,AGTTCAACTATTCAAGCATGACTAGGAGTCTTTCTGGTCCCGGAGTCACCTAGTGCAG,4120 fluorescence intensity (a.u.)
9,AAGCGGCTGCCACGACTCATTGTGTAGTGTCTGCATGTGTCGGAGTCACCTAGTGCAG,3280 fluorescence intensity (a.u.)
10,CAGTTCCCAGCTGGACCTCCGACCTCCTACCTCCTCACCTCGGAGTCACCTAGTGCAG,3340 fluorescence intensity (a.u.)
11,AACCAACTATTCCACCTAACACTCCACACCTCTTCCTAGACGGAGTCACCTAGTGCAG,3180 fluorescence intensity (a.u.)
12,ATAGTTAGCTAGTCCACATCACAGGCAAAATATGCGCTACCGGAGTCACCTAGTGCAG,4120 fluorescence intensity (a.u.)
13,CAGAGTCGCCGTTGGTGGTTTGGTAGCATGACTCTGCCATCGGAGTCACCTAGTGCAG,3890 fluorescence intensity (a.u.)
14,ATCCGATATTACCTGTAATCTTTTCTATGCATACATCATACGGAGTCACCTAGTGCAG,3400 fluorescence intensity (a.u.)
15,GTAAATTTCATAAAATCCCACGTATTATGATTCAAATTGCCGGAGTCACCTAGTGCAG,5110 fluorescence intensity (a.u.)
16,CACACCCTTACTGTAGCTATCACTGCACAAAGCCAAAACCCGGAGTCACCTAGTGCAG,43600 fluorescence intensity (a.u.)
17,AAGGGTACACTTTATTTTGTTGGGACAAACTTTGACCAATCGGAGTCACCTAGTGCAG,8920 fluorescence intensity (a.u.)
18,GGTTCTCTCCACACCAGCACAGCAGCGAGTACAGCCAGGCCGGAGTCACCTAGTGCAG,3640 fluorescence intensity (a.u.)
19,CGGCGATCCGTACGTCGCCGGCGGCGATCGATTTGTATATCGGAGTCACCTAGTGCAG,3160 fluorescence intensity (a.u.)
20,TGAATCTAAACATATATCATTAACATCAATATGAATATATCGGAGTCACCTAGTGCAG,3250 fluorescence intensity (a.u.)
21,ATCAGAGGATCGGCACTAAGCCATGCAAGGCAAGTGCCACCGGAGTCACCTAGTGCAG,3330 fluorescence intensity (a.u.)

# Some of the entries so far, with bars between the fields:
row | Sequence | binding signal
13 | CGGGACACACGTCTTACACATCAGCATTTGCTAAGCATACCGGAGTCACCTAGTGCAG | 5180 fluorescence intensity (a.u.)
14 | TTGTGATGTCCATGTCACATGCAGTCCATTAAGGCCCTTGCGGAGTCACCTAGTGCAG | 5190 fluorescence intensity (a.u.)
